The other results are listed elsewhere or left out. These are further read-outs of the screen, such as a control signal, another cell line or another target. No call is given for them. The list favours compounds with an active or inconclusive main result. Words in brackets tell the shape of the fitted curve; partial curves, single points and poor fits give uncertain potencies.
Assay: qHTS Assay for Lipid Storage Modulators in Drosophila S3 Cells;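 as to cell number change: cells counted by Cell Tracker Red CMTPX staining in the red channel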
Details: BODIPY lipid droplet fluorescence, 18-24 h; for cell number change: measured here: cell count max response, cells fed with added oleic acid
Outline: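 Drosophila S3 cells loaded with oleic acid (400 uM, as added) and compounds at several concentrations; lipid droplets imaged by 488-nm laser-scanning cytometry, 500–530 nm intensity and object ratio to cell channel. Percent activity normalized to 20 uM Triacsin C.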

[1] = measured here: cell number channel AC50, cells fed with added oleic acid
[2] = measured here: lipid fluorescence (Fed channel) AC50, cells fed with added oleic acid

Row | Structure (SMILES) | cell number change [%] | AC50 [1] | AC50 [2]
1 | O=C(COc1ccccc1CNCc1ccccc1)Nc1ccccc1 | 59.2 | 9.2 µM [rising, partial curve] | 14.6 µM [rising, partial curve]
2 | O=C(NCc1n[nH]c(=S)n1-c1ccc(Br)cc1)c1ccc(S(=O)(=O)N2CCCCC2)cc1 | 8.75 |  | 
3 | CCOC(=O)c1c(Nc2ccccc2N)cc(C)nc1C | 6.61 |  | 
4 | COC(=O)CN(C#N)c1nc(NC(C)C)nc(NC(C)C)n1 | 24.3 |  | 
5 | O=C(Nc1ccc(F)cc1F)N1CCC(c2nc3ccccc3o2)CC1 | -26.3 |  | 1.3 µM [falling, full curve, poor fit]
6 | CCOCCc1c(O)nc(SCC(=O)N2CCOCC2)[nH]c1=O | -1.32 |  | 5.62 µM [rising, single point]
7 | Cc1ccc(OCC(=O)N2CCCCCC2)c(C)c1 | -3.43 |  | 29.1 µM [rising, single point]
8 | CCOc1ccccc1NC(=O)c1cccc(NC(=O)C(C)C)c1 | -41.3 |  | 
9 | Cc1nc2ccccc2c2oc(C(=O)NCc3ccccn3)cc12 | 212 | 0.366 µM [rising, full curve] | 0.326 µM [rising, full curve]
10 | CC1CCCC(C)N1C(=O)Cn1c(=O)sc2ccccc21 (stereo not drawn) | 16.4 |  | 1.3 µM [rising, full curve]
11 | COc1ccc(-c2nc3ccccc3nc2-c2ccc(OC)c(OC)c2)cc1OC | -5.41 |  | 
12 | O=C(NCCCNC(=O)c1ccccn1)c1ccc(Cl)cc1 | 6.58 |  | 
13 | COCCNC(=O)c1ccccc1NS(=O)(=O)c1ccc(Br)s1 | 47 | 4.61 µM [rising, partial curve] | 
14 | Cc1ccccc1N1CCN(c2ccc(NC(=O)C3CCCCC3C(=O)O)cc2)CC1 (stereo not drawn) | -22.7 |  | 6.51 µM [rising, single point]
15 | O=C(CN(Cc1ccccc1Cl)C(=O)CN1C(=O)CSc2ccccc21)NC1CC1 | 0.952 |  | 
16 | CC(=O)Nc1ccc(N)cc1 | 6.33 |  | 0.58 µM [falling, partial curve]
17 | CCCC1C(=O)N(c2ccccc2)C1c1ccccc1 (stereo not drawn) | 0.828 |  | 6.51 µM [rising, single point]
18 | CC(C)n1c(O)c(/C=C2\C=NN=C2c2ccccc2)sc1=S | -59 | 16.4 µM [falling, single point] | 29.1 µM [falling, single point]
19 | CC1=C(C(=O)N(C)C)C(c2cccc(Cl)c2)NC(=O)N1 (stereo not drawn) | -34.3 | 14.6 µM [falling, single point] | 
20 | O=C(O)CSc1nnc(Cn2nnc3ccccc32)n1CCc1ccccc1 | -17.9 |  | 2.06 µM [falling, full curve, poor fit]
21 | O=C(Nc1ccc(S(=O)(=O)N2CCCC2)cc1)c1cncc(Br)c1 | -11.5 | 0.00411 µM [falling, full curve, poor fit] | 0.00517 µM [falling, full curve, poor fit]
22 | N#C/C(=C\c1cn(Cc2cccc(F)c2)c2ccccc12)C(=O)NCc1ccco1 | 5.71 |  | 4.61 µM [rising, single point]
23 | CN(C)c1cc2c(cc1NC(=O)c1ccccc1Cl)n(C)c(=O)n2C | -14.4 |  | 1.03 µM [falling, full curve, poor fit]
24 | C=CCN1C(=O)C(C)(C)N(C(=O)c2cccc([N+](=O)[O-])c2)c2ccccc21 | -15.7 |  | 6.51 µM [rising, single point]
25 | O=C(c1ccccc1[N+](=O)[O-])N1N=C(c2ccccc2)CC1(O)C(F)(F)F (stereo not drawn) | -9.34 |  | 23.1 µM [falling, single point]
26 | Cc1ccc(NC(=O)CCS(=O)(=O)c2ccccc2)cc1S(=O)(=O)N1CCCCCC1 | -31.5 | 16.4 µM [falling, partial curve] | 18.4 µM [falling, partial curve]
27 | Fc1cccc(NC(=S)NNc2c3ccccc3nc3ccccc23)c1 | -82.7 | 20.6 µM [falling, single point] | 18.4 µM [falling, single point]
28 | O=C(/C=C/Nc1ccc(Br)cc1F)c1ccccc1 |  | 6.51 µM [falling, single point] | 6.51 µM [rising, single point]
29 | Cc1cc(Oc2ccc(C#N)cc2)nc(NCc2ccccc2)n1 | -10.9 |  | 
30 | COc1ccc(N2CCN(C(=O)COC(=O)c3ccccc3OCc3ccc(F)cc3)CC2)cc1 | -0.0566 |  | 9.2 µM [falling, partial curve, poor fit]

Some of the entries above in another layout.
Row	Structure (SMILES)	cell number change [%]	AC50 [1]	AC50 [2]
22	N#C/C(=C\c1cn(Cc2cccc(F)c2)c2ccccc12)C(=O)NCc1ccco1	5.71		4.61 µM [rising, single point]
23	CN(C)c1cc2c(cc1NC(=O)c1ccccc1Cl)n(C)c(=O)n2C	-14.4		1.03 µM [falling, full curve, poor fit]
